Results are given in words; binding and its absence hold for the method and conditions named. Binding can be weak; no strength is given.

Binding data for seven molecules are collected here from patent US7537764.

Test [1] addresses West Nile virus strain USA99b (strain 385-99), whole virus (West Nile virus strain 385-99 (USA99b)). The experiment in a line: Western blot or immunoprecipitation of inactivated WNV. In general terms: A western blot detects proteins with antibodies after separation by electrophoresis.
Test [2] has the same target. As to the kind of experiment: phage ELISA. (An ELISA detects its analyte on a solid surface through an enzyme-linked reagent.)

B1: CR4289 (antibody, V domains shown)
VH: EVQLVQSGAEVKKPGESLRISCKGSGYSFTSNWITWVRQMPGKGLEWMGRIDPSDSYTNYSPSFQGHVTISADKSISTAYLQWSSLKASDTAMYYCARDVVGVGASDYYYYMDVWGQGTTVTVSS
VL: EIVLTQSPGTLSLSPGETATLSCRTSQSVSSSYLGWYQQKPGQAPRLLIYGASIRATGIPARFSGSGSGTEFTLTIDSLQSEDFAVYYCQQYNNWPPITFGQGTRLEIKR
B1: the binding entry in test [1] was “binds”.

B2: SC04-271 (scFv)
scFv: EVQLVETGAEVKKPGESLRISCKGSGYTFNNYWIGWVRQMPGKGLEWMGIIYPGDSDTRYSPSVQGHVTISADKSINTAYLQWSSLKASDTAVYYCARRPGYDYGFYYFDYWGQGTLVTVSSGTGGSGGTGSGTGGSTQSALTQPRSVSGSPGQSVTISCTGTSSDVGGYNYVSWYQHHPGKAPKLMIYDVSNRPLGVSNRFSGSKSGNTASLTISGLQAEDEADYYCSSYTSSSTYVFGTGTHLTVLS
B2: the binding entry in test [2] was “binds”.

B3: SC04-289 (scFv)
scFv: QMQLVQSGAEVKKPGESLRISCKGSGYSFTSNWITWVRQMPGKGLEWMGRIDPSDSYTNYSPSFQGHVTISADKSISTAYLQWSSLKASDTAMYYCARDVVGVGASDYYYYMDVWGKGTTVTVSSGTGGSGGTGSGTGGSTEIVLTQSPGTLSLSPGETATLSCRTSQSVSSSYLGWYQQKPGQAPRLLIYGASIRATGIPARFSGSGSGTEFTLTIDSLQSEDFAVYYCQQYNNWPPITFGQGTRLEIKR
Consider B3, for which, in test [2], the binding result is listed as “binds”.

B4: CR4299 (antibody, V domains shown)
VH: QVQLVESGGGVVQPGRSLRLSCAASGFTFSGYAMHWVRQAPGKGLDWVAVISYDGSEKYSADSVKGRFTISRDNSKNTLYLQMNSLRAEDTAVYYCAKESGGPIWYKYYGVDVWGQGTTVTVSS
VL: SYVLTQPPSLSAAPRQRVTISCSGSSSNIGNYGVNWYQQLPGKAPKLLIYYDDLLPSGVSDRFSGSKSGTSASLAISGLQSEDEGDYYCAAWDDTLSAWVFGGGTKLTVLG
Consider B4, for which, in test [1], the binding result was “binds”.

B5: SC04-311 (scFv)
scFv: EVQLVQSGGGVVQPGRSLRLSCVASGFTFSKDAMHWVRQAPGKGLEWVAVISYDGSDKHYADSVKGRVTISRDNSRKTLYLRMDSLRAEDTALYYCARGYNSGHYFDYWGQGTLITVSSGTGGSGGTGSGTGGSTQSVLTQPPSVSAAPGQKVTISCSGTSSNIGDNYVSWYQHLPGTAPKLLIYDNNKRPSGIPDRFSGSKSGTSATLGVTGLQTGDEADYYCGTWDSSLTAVVFGGGTKLTVLG
As for B5, the binding result in test [2] is reported as “binds”.

B6: SC04-283 (scFv)
scFv: EVQLVQSGAEVKKSGESLKISCKGSGYTFNTYWIGWVRQMPGKGLEWMGIIYPGDSDTIYSPSFQGQVTISADKSISTAYLQWSSLKASDSAMYYCARLTFRRGYSGSDSFLPPGDFDYWGQGTLVTVSSGTGGSGGTGSGTGGSTDIQMTQSPSTLSASVGDRVTITCRASQSISSWLAWYQQKPGKAPNLLIYAASSLQSGVPSRFSGSGSGTDFTLTISSLQPDDSATYYCQQYNTYPLTFGGGTKVEIKR
In the case of B6, in test [2], the binding result is listed as “binds”.

B7: SC04-299 (scFv)
scFv: EVQLVETGGGVVQPGRSLRLSCAASGFTFSGYAMHWVRQAPGKGLDWVAVISYDGSEKYSADSVKGRFTISRDNSKNTLYLQMNSLRAEDTAVYYCAKESGGPIWYKYYGVDVWGQGTTVTVSSGTGGSGGTGSGTGGSTSYVLTQPPSLSAAPRQRVTISCSGSSSNIGNYGVNWYQQLPGKAPKLLIYYDDLLPSGVSDRFSGSKSGTSASLAISGLQSEDEGDYYCAAWDDTLSAWVFGGGTKLTVLG
As for B7, the binding entry in test [2] is reported as “binds”.
